# Results: PubChem BioAssay AID504834 (National Center for Advancing Translational Sciences (NCATS), 2011)
# Screen size: about 320,000 compounds; about 22,000 (6.9%) were called active. The shares of active, inactive and inconclusive entries below differ from those in the screen. The call rests on the fitted dose curve; in most records, active means well fitted inhibition curve with a large enough effect; inconclusive means small, poorly fitted or top-dose-only effect, or another doubt; inactive means no such curve, though single readings can be large or run the other way. Potencies beside an inconclusive call are fits to weak or partial responses and may not hold up.
# Assay: Primary qHTS for delayed death inhibitors of the malarial parasite plastid, 96 hour incubation
# Conditions: P. falciparum luciferase reporter growth; series mostly up to 28.7 µM; activity change, negative = inhibition: at the top concentration
# Method in brief: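 96 h incubation, 37 C, 5% CO2, of luciferase-reporter P. falciparum-infected RBCs (2% hematocrit, 0.05% parasitemia final) with test compounds; endpoint luminescence.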
# On the % scale 0 is the no-effect control and ±100 the full control effect; potency means the concentration at half of the fitted maximal effect.
SMILES,Potency,"activity change, negative = inhibition"
COc1ccccc1-c1cnn2c(NCc3ccccc3)cc(C)nc12,"inconclusive: 18.5 µM [inhibitor, single point]",
CC1(C)Cc2c(c(N3CCOCC3)nc3sc(C(=O)Nc4ccc(Cl)cc4)c(N)c23)CO1,"inconclusive: 0.928 µM [inhibitor, full curve]",
Cc1c(NC(=O)Cn2nc(C(=O)O)c3ccccc3c2=O)c(=O)n(-c2ccccc2)n1C,"inconclusive: 0.165 µM [inhibitor, full curve, poor fit]",
N#CCC(=O)Nc1ccc(C(=O)OCC(=O)NCc2ccc3c(c2)OCO3)cc1,"inconclusive: 13.1 µM [inhibitor, partial curve, poor fit]",
CCN1CCN(c2ccc(S(=O)(=O)N3CCOCC3)cc2NC(=O)c2ccccc2SC)CC1,"inconclusive: 18.5 µM [inhibitor, single point]",
Cc1ccc(-c2csc(NC(=O)Cc3ccc(F)cc3)n2)o1,,inactive: -17.8%
COc1ccc(CC2(C)OC(c3ccc([N+](=O)[O-])cc3)=NN2C(C)=O)cc1 (stereo not given),active: 9.28 µM,
Cc1ccccc1Cn1c(=N)n(CC(=O)c2ccco2)c2ccccc21,active: 14.7 µM,
O=C(c1ccccc1C(=O)N(c1ccccc1)c1ccccc1)N1CCCCC1,"inconclusive: 1.04 µM [inhibitor, partial curve, poor fit]",
O=C(Nc1ccc(Cl)c(C(=O)N2CCOCC2)c1)c1ccccc1,,inactive: 2.93%
O=C(O)Cc1nn(Cc2ccc(Br)cc2F)c(=O)c2ccccc12,,inactive: -13.3%
CCOc1ccc(C(=O)N/N=C/c2cc(Cl)ccc2[N+](=O)[O-])cc1,"inconclusive: 18.5 µM [inhibitor, single point]",
COCCC(=O)N1CCC(Oc2ccc(C(=O)NC3CCCCC3)cc2)CC1,"inconclusive: 16.5 µM [inhibitor, partial curve, poor fit]",
CCOC(=O)c1ccc(N/C=C/C(=O)c2ccccc2)cc1,"inconclusive: 0.104 µM [inhibitor, full curve, poor fit]",
Cc1cccc(C)c1NC(=O)CNC(=O)C1CC(=O)N(Cc2ccccc2)C1 (stereo not given),,inactive: 1.39%
O=C(Oc1ccc2c(=O)c(Cl)coc2c1)c1ccncc1,,inactive: -64.6%
O/N=C/c1cn(-c2ccccc2)nc1-c1cccnc1,,inactive: 13.2%
CCC1=C(OC(=O)N(CC)CC)N2C(=O)OC(=NCC3CC3)[C@]2(Cc2ccccc2)[C@H]2C1=CC[C@H]1C(=O)N(CC)C(=O)[C@H]12,active: 13.1 µM,
CCCCc1cc(=O)oc2cc(C)cc(OC(C)C(=O)NCC3CCC(C(=O)O)CC3)c12 (stereo not given),active: 9.28 µM,
Cc1ccc(OCCSc2nnc(-c3ccncc3)n2C)cc1,"inconclusive: 7.38 µM [inhibitor, partial curve, poor fit]",
COc1ccc(Nc2nc(-c3ccc4c(c3)NC(=O)CO4)cs2)cc1,"inconclusive: 9.28 µM [inhibitor, partial curve, poor fit]",
CCOC(=O)CNC(=O)C(=O)c1c(O)[nH]c2ccccc12,"inconclusive: 10.4 µM [inhibitor, single point]",
O=C(NC(NC(=S)Nc1cc(Cl)ccc1Cl)C(Cl)(Cl)Cl)c1ccco1 (stereo not given),"inconclusive: 18.5 µM [inhibitor, partial curve, poor fit]",
CNC(=O)c1ccc(NC(=O)c2ccc3c(=O)n4c(nc3c2)CCC4)cc1,"inconclusive: 18.5 µM [inhibitor, single point]",

SMILES,Potency,"activity change, negative = inhibition"
CNC(=S)NNC(=O)c1sc2cc(C(F)(F)F)cnc2c1-c1ccccn1,"inconclusive: 2.08 µM [inhibitor, partial curve, poor fit]",
CCOc1ccc(N2CC(C(=O)NC3CCCC3)CC2=O)cc1 (stereo not given),"inconclusive: 18.5 µM [inhibitor, single point]",
COc1cc(C(=O)Nc2ccc(C(=O)NCC3CCCO3)cc2)cc(OC)c1OC (stereo not given),"inconclusive: 0.465 µM [inhibitor, full curve, poor fit]",
CC(=O)c1cccc(NC(=S)N2CCN(S(C)(=O)=O)CC2)c1,,inactive: 47.9%
NC(=O)COc1ccc(/C=N\NC(=O)CC(=O)NCCc2ccccc2)cc1,,inactive: -33.4%
Cc1cc(C)nc(N/N=C/C2=C(O)CC(c3ccccc3)CC2=O)n1 (stereo not given),,inactive: -10.1%
O=C(NC(=S)Nc1ccc(Br)cn1)c1cccs1,"inconclusive: 9.28 µM [inhibitor, single point]",
NC(=O)c1cc(-c2ccccc2)nc(N2CCOCC2)n1,,inactive: 2.65%
CCCCCCCCCCCCCC[n+]1ccc(C)cc1,active: 0.849 µM,
O=C(NCCCN1CCCCC1)C1CCC(=O)N1CCc1ccccc1 (stereo not given),,inactive: 0.411%
Cc1ccc(-n2nc3ccc(N)cc3n2)c(C)c1,active: 1.65 µM,
O=C(CSc1n[nH]c(-c2cccs2)n1)N1CCCCC1,,inactive: 26.9%
O=C(c1cc(-c2cccs2)nn1-c1ccccc1)N1CCN(S(=O)(=O)c2ccccc2)CC1,active: 4.15 µM,
COc1ccccc1N(C)S(=O)(=O)c1ccc(C(=O)NNC(=O)c2ccccc2O)cc1,"inconclusive: 18.5 µM [inhibitor, single point]",
COc1cc(C2C(C#N)=C(N)Oc3n[nH]c(-c4cccs4)c32)cc(OC)c1O (stereo not given),"inconclusive: 1.17 µM [inhibitor, partial curve, poor fit]",
Nc1cn(C2OC(CO)C(O)C2O)c(=O)[nH]c1=O (stereo not given),"inconclusive: 18.5 µM [inhibitor, single point]",
COc1ccc(S(=O)(=O)N2CCCC2CNC(=O)C(=O)NC2CCCCCC2)cc1 (stereo not given),"inconclusive: 6.57 µM [inhibitor, partial curve]",
CCOc1cccc(OCCCNCCCOC)c1,"inconclusive: 16.5 µM [inhibitor, single point]",
O=C(COC(=O)C12CC3CC(CC(C3)C1)C2)NCCCc1ccccc1,,inactive: 8.02%
CCCCc1cc(=O)oc2cc(C)cc(OCC(=O)N3CCC(C(N)=O)CC3)c12,"inconclusive: 16.5 µM [inhibitor, partial curve, poor fit]",
Cc1ccc(N(C)C(=O)CC(C)S(=O)(=O)c2ccc3c(c2)NC(=O)CO3)cc1 (stereo not given),active: 3.7 µM,
Cc1cc2nc(CS)[nH]c2cc1C,"inconclusive: 11.7 µM [inhibitor, partial curve, poor fit]",
CCCOC(=O)C1=C(C)OC23OC(N)=C(C#N)C12C(=O)c1ccccc13 (stereo not given),,inactive: -18.8%
Cn1c(SCC(=O)Nc2ccc3c(c2)n(C)c(=O)n3C)nnc1-c1ccncc1,,inactive: 4.76%

# Structures shown so far that have a cyano group, in the order listed:
SMILES,Potency,"activity change, negative = inhibition"
N#CCC(=O)Nc1ccc(C(=O)OCC(=O)NCc2ccc3c(c2)OCO3)cc1,"inconclusive: 13.1 µM [inhibitor, partial curve, poor fit]",
COc1cc(C2C(C#N)=C(N)Oc3n[nH]c(-c4cccs4)c32)cc(OC)c1O (stereo not given),"inconclusive: 1.17 µM [inhibitor, partial curve, poor fit]",
CCCOC(=O)C1=C(C)OC23OC(N)=C(C#N)C12C(=O)c1ccccc13 (stereo not given),,inactive: -18.8%

# (continued)

SMILES,Potency,"activity change, negative = inhibition"
Cc1[nH]c2ccccc2c1C(=O)COC(=O)c1c(-c2ccccc2)noc1C,"inconclusive: 9.28 µM [inhibitor, single point]",
Cn1c(CN2CCOCC2)nnc1SCC(=O)Nc1nccs1,,inactive: 4.02% [at 5.75 µM]
Cc1ccccc1C(=O)NCC(=O)Nc1ccc(C)c(S(=O)(=O)N2CCCCCC2)c1,"inconclusive: 14.7 µM [inhibitor, single point]",
CCOc1ccc(N(CC(=O)NN=C2CCN(C)CC2)S(=O)(=O)c2ccc(Br)cc2)cc1,active: 14.7 µM,
Cc1cccc(NC(=O)c2cc3c(=O)n4ccccc4nc3s2)c1,,inactive: 29.7%
N#CC1=C(N)SC(N)=C(C#N)C1c1ccc([N+](=O)[O-])cc1,"inconclusive: 5.22 µM [inhibitor, partial curve, poor fit]",
Cc1cc(-c2ccc(C(C)C)c(S(=O)(=O)N3CCOc4ccccc43)c2)on1,,inactive: 19.3%
C=CCNC(=O)C1CC(=O)N(c2ccc(C)cc2)C1 (stereo not given),"inconclusive: 5.22 µM [inhibitor, partial curve]",
O=C(CSc1ccccc1C(=O)NCc1ccccc1)NC12CC3CC(CC(C3)C1)C2,"inconclusive: 5.86 µM [inhibitor, partial curve, poor fit]",
COC(=O)c1cc(S(=O)(=O)NCC(C)c2ccccc2)cn1C (stereo not given),"inconclusive: 18.5 µM [inhibitor, single point]",
O=C(Nc1ccccc1C(F)(F)F)N1CCCC(O)C1 (stereo not given),"inconclusive: 18.5 µM [inhibitor, single point]",
CC1(O)CC(=O)N(c2ccccc2)O1 (stereo not given),"inconclusive: 11.7 µM [inhibitor, partial curve]",
C/C(=N\Nc1nc(C)cc(C)n1)c1ccc(N2CCOCC2)cc1,"inconclusive: 11.7 µM [inhibitor, single point]",
CCCCNC(=O)c1onc(CSc2ccccc2CC)c1C(=O)O,"inconclusive: 18.5 µM [inhibitor, partial curve, poor fit]",
Cc1ccc(-c2nc(SC(C)C(=O)N3CCOCC3)n[nH]2)cc1 (stereo not given),"inconclusive: 18.5 µM [inhibitor, single point]",
COc1ccc(OCCCCN2CCC(C)CC2)cc1,"inconclusive: 1.31 µM [inhibitor, full curve, poor fit]",
CCCCC(=O)N1CCCC(c2nc(-c3cccc(OC)c3)no2)C1 (stereo not given),"inconclusive: 11.7 µM [inhibitor, partial curve, poor fit]",
CCCn1c(N)c(N(CCOC)C(=O)c2ccc(N(C)S(=O)(=O)c3ccc(C)cc3)cc2)c(=O)[nH]c1=O,"inconclusive: 0.586 µM [inhibitor, full curve, poor fit]",
COC(=O)CNC(=O)c1cccc(-c2ccc(OC)cc2)c1,active: 2.33 µM,
COC(=O)CC1C(=O)NCCN1C(=O)c1ccc([N+](=O)[O-])cc1 (stereo not given),,inactive: 5.25%
O=C(CCN1CCCC1=O)NC1CCCc2c1cnn2-c1ccccc1F (stereo not given),"inconclusive: 1.04 µM [inhibitor, full curve]",
CCc1nc(NCC2CCCO2)c2oc3ccccc3c2n1 (stereo not given),"inconclusive: 9.28 µM [inhibitor, partial curve]",
